Data taken from the supplement of paper PMC5949888.
Most values lie at the floor of the assay. Slopes are relative: functional sequences can read slightly below zero.

Tested on: Saccharomyces cerevisiae PS128 hsf1 delta, HSF1(1-493) fusion
Experiment: growth estimate (transactivation domain function in HSF1 fusion, heat-shock survival) (a.u. (slope of normalised read count over time)); higher = stronger growth at 37°C, i.e. more transactivation activity
Conditions: library: random library

Row | Substance | growth estimate
1 | EQFRGRKSSGRSGDSGGHVS | < -0.25
2 | QNQFVCLSNAWPIGRRLWTR | < -0.25
3 | CVRS | < -0.25
4 | PIMQLTERGSRLRMYAAVNE | < -0.25
5 | RVLASYRRLIGLGRIFVQFP | < -0.25
6 | VGGFKHYSSMWLYWLSRLDG | < -0.25
7 | GYLPATDVVEDESVWNPLTR | < -0.25
8 | CPNAVSS | < -0.25
9 | GSTNYQESTILRVTPWPSAS | < -0.25
10 | DSLHDGRISTLVWTVREA | < -0.25
11 | YKTECLNTGWLRDRYLQFKP | < -0.25
12 | ARGQ | < -0.25
13 | AAMPLIRAQGQQMPGSRLGK | < -0.25
14 | FRFYST | < -0.25
15 | DHIARGEAASLRARTSAASE | < -0.25
16 | DHHC | < -0.25
17 | STYISLTRRNGRCRRGRGAI | < -0.25
18 | GTNASLAQVQMLGITWVRYQ | < -0.25
19 | TSSILGGAKIQEKHNSCNHP | < -0.25
20 | DSVGPSVR | < -0.25
21 | GEVGRSTLVAGRGRHDIHYH | < -0.25
22 | VGSNRVQRR | < -0.25
23 | AGGGTGQGTSSIQVRSLRRR | < -0.25

Row | Substance | growth estimate
24 | DISPSRGGRATGARRGHRCP | < -0.25
25 | AHEC | < -0.25
26 | IRSCHSGIYSPRECMG | < -0.25
27 | LGRFVGYHGMISVKGFIRTR | -0.182
28 | KHSAQSGRVTVR | < -0.25
29 | HVVPNDPPEARSIEEWL | < -0.25
30 | NIRVR | < -0.25
31 | VEPLMVNCGSINRD | < -0.25
32 | SSRRQE | < -0.25
33 | RDLGILSVRYAQRKVNRKGY | < -0.25
34 | QFVRPNCLQRL | < -0.25
35 | GVRARPTGTQWRFNRCFAPL | < -0.25
36 | PHRPGIIRYRSLCEAPPVAV | < -0.25
37 | DSCLTVAGS | < -0.25
38 | GQRRRSHRGGIKSRESCSHS | < -0.25
39 | FCTVSV | < -0.25
40 | TSEPLLEAAESGDKVSWCGP | < -0.25
41 | MHGFLSSDNKEYLGGDSTLI | -0.248
42 | PHRYQRGAGGLTVLLLRLSE | < -0.25
43 | GLHW | < -0.25
44 | LAQVTPAA | < -0.25
45 | DDLSPGVVIMPGSITSRHGF | < -0.25
46 | VREWCSPTERPRNILGSNRQ | < -0.25

5 entries picked at random from those above:
Row | Substance | growth estimate
36 | PHRPGIIRYRSLCEAPPVAV | < -0.25
40 | TSEPLLEAAESGDKVSWCGP | < -0.25
30 | NIRVR | < -0.25
43 | GLHW | < -0.25
26 | IRSCHSGIYSPRECMG | < -0.25

(list continues)

Row | Substance | growth estimate
47 | SPWAYYHLLSACHAWSIPHG | < -0.25
48 | RLGELFS | < -0.25
49 | RPQSVLKNAGRLGKR | -0.107
50 | CEGGHYN | < -0.25
51 | APVRDGHSRYIAR | < -0.25
52 | PGCHLVDTMTGSLVSHTTAQ | < -0.25
53 | PSLLRLPSKRPCSKLGVTVR | < -0.25
54 | SVSNRVPGLPPPYNYAPSKH | < -0.25
55 | DALVLVLVPSD | < -0.25
56 | SEVCLSPGK | < -0.25
57 | CVVVVREFRLLRR | < -0.25
58 | VHYLSGVGLFMA | < -0.25
59 | RRLGSRPVSSPGELTMC | < -0.25
60 | LVASST | < -0.25
61 | AVGEMNLPYGK | < -0.25
62 | ICFQWSQQDAGC | < -0.25
63 | DRSVR | < -0.25
64 | DSVV | < -0.25
65 | YGRPRIRVGRRKHRLAASAA | < -0.25
66 | AMCDFDYCIRWNALNVHLVK | < -0.25
67 | LGSKRNSLGSPGSMRSFVSL | < -0.25
68 | KCQSGDTQSGEDVGLFLRRV | < -0.25
69 | EKRRYSVCALCL | < -0.25

Row | Substance | growth estimate
70 | GGANTPGAEWMVVAYVRTLR | < -0.25
71 | EVFNGRTRSWCCLGPVPSGY | < -0.25
72 | GDSNVARLYPVHMTSCQAHE | < -0.25
73 | RVVRLKSY | < -0.25
74 | TGAV | < -0.25
75 | AGGLTLHSGKPYTMDLTYQT | < -0.25
76 | FTATEWQEVVLARPGGSVLA | < -0.25
77 | CGRCTVGSILPLA | < -0.25
78 | QYLKLVRRFGGYFCGCL | < -0.25
79 | CYSRDT | < -0.25
80 | SNPARSGSQMSVVINNDDPA | < -0.25
81 | SVSYEDRQSVRIQKVQRVRP | < -0.25
82 | LDRQTEGLSFTC | < -0.25
83 | SLI | < -0.25
84 | AEKRPTTRLLLMPRLPNDSP | < -0.25
85 | PHRPLSEILHHKAVLYFRWR | < -0.25
86 | RIGLELNGRGKLRVFAT | < -0.25
87 | SVLNIRQRRNKSRTTPLWK | < -0.25
88 | LHWIGCQ | < -0.25
89 | ELL | < -0.25
90 | CEFTNVLCPSIAVNQCEPFL | < -0.25
91 | GTAGGPVLVTTIRPSRLGYV | < -0.25
92 | LCRPVLENNARAHGA | < -0.25

Row | Substance | growth estimate
93 | FGA | < -0.25
94 | ICLESPVSSSPGFLKRALVR | < -0.25
95 | KTLIPRAADHGLRIVLA | < -0.25
96 | GGTRHHDHICTGPGTVRGIM | -0.243
97 | PGMESRNCTALICCIDVHRG | < -0.25
98 | VMLGWVVAQFGCTNRKSAT | < -0.25
99 | PDRYPKEWTWGPRILLGPQG | < -0.25
100 | RASKESIEMGVADWGDILVR | < -0.25
101 | GSEAISKGDRNLLGVRRC | < -0.25
102 | ICTR | < -0.25
103 | GPNDFIGSPVSIIGLGRASY | < -0.25
104 | HPLPVITHPSRAGWIVLAAS | < -0.25
105 | RVLPGGSVTCN | < -0.25
106 | CRFRWQLAANVRRKVQWYV | < -0.25
107 | SSRWRIRGS | < -0.25
108 | GWETNQVCRTNFLEAPRKVR | < -0.25
109 | LVLPSRHRGEIRRSLIMVLI | < -0.25
110 | PEQKPRGRERNRCASGLATE | < -0.25
111 | SRFGVKNLPLLRHRS | < -0.25
112 | STHEY | < -0.25
113 | EVTIQSLSWNRWMSRGKIGR | < -0.25
114 | TVAIC | < -0.25
115 | SQWVFCPMAVDRNNVKVCRG | < -0.25

Row | Substance | growth estimate
116 | LWRFGRGGSGKHGGHASSLS | < -0.25
117 | VGLGRVDTKRCTFDCTLSEE | < -0.25
118 | VDASQWGVIA | < -0.25
119 | FVTPGSRQ | < -0.25
120 | LGPSHSAQCGLQV | < -0.25
121 | KSCVLRVSCAASVGKKSS | -0.246
122 | LSAGSRRIDFE | < -0.25
123 | VINMP | < -0.25
124 | MSGTTTAMSQYVTRQPFSSN | -0.243
125 | YSPGENVS | < -0.25
126 | GLGRSPGEA | < -0.25
127 | TSARYRIQTGRFSAVCIRLR | < -0.25
128 | RNQREVDGHDK | < -0.25
129 | EWDQQNPMELKGWPVDTRPR | < -0.25
130 | PGRYERHGAEITVRSITLRR | < -0.25
131 | IQQVRGAYRASSCSARRAQL | < -0.25
132 | TAHAIKSPMGHVSIYVESLA | < -0.25
133 | TTHRGDNNDESDTSHVLASV | < -0.25
134 | VVCWPRKHWELSILIIGSAM | < -0.25
135 | GAEE | < -0.25
136 | QRSSG | < -0.25
137 | VDLRRVA | < -0.25
138 | GRVLGMSSPTEAWTILEVKT | < -0.25

2 successive records from above:
Row | Substance | growth estimate
116 | LWRFGRGGSGKHGGHASSLS | < -0.25
117 | VGLGRVDTKRCTFDCTLSEE | < -0.25

Next results follow:

Row | Substance | growth estimate
139 | TSD | < -0.25
140 | FIV | < -0.25
141 | KVTLALRHLTVL | < -0.25
142 | RYVSARGP | < -0.25
143 | ASREGAEIWLLGRCNLRRAD | < -0.25
144 | QAVGIDLGIYCSTGAVAVIH | < -0.25
145 | PPITTK | < -0.25
146 | QGRNLSTNHLC | -0.25
147 | RPASRWGVRDGTHWSHRFAD | < -0.25
148 | RCHLFCFARFYVELPLFLDL | < -0.25
149 | RHLPTRRLFSRAS | < -0.25
150 | ALC | < -0.25
151 | YDRHFSGK | < -0.25
152 | SRAMISQRSTDRLLIS | < -0.25
153 | FARVVGAAQTR | < -0.25
154 | KFTVRTVSHHILHAVLVLYR | < -0.25
155 | LGNS | < -0.25
156 | WMLLG | < -0.25
157 | VHSVIRCSLVRIAVECSLGP | < -0.25
158 | PSAFKDSWELCVRVAVALSV | < -0.25

Reformatted with tabs: part of the list above.
Row	Substance	growth estimate
149	RHLPTRRLFSRAS	< -0.25
153	FARVVGAAQTR	< -0.25
156	WMLLG	< -0.25
158	PSAFKDSWELCVRVAVALSV	< -0.25
